Assay results published in article PMC12113829.

Assays:
Experiment in all cases: two-hybrid; small-scale, co-transformation of one bait (BD fusion of HLP_PM19 deletion mutants) and one prey (AD-AtToc33); growth and blue colour on DDO with aureobasidin A and X-alpha-Gal (DDOXA)
[1] = molecular target: HLP_(PM19-N) fused to the Gal4 binding domain ('Candidatus Phytoplasma mali' strain PM19)
[2] = molecular target: HLP_(PM19-C) fused to the Gal4 binding domain ('Candidatus Phytoplasma mali' strain PM19)
[3] = molecular target: HLP_(PM19-DUF21-C) fused to the Gal4 binding domain ('Candidatus Phytoplasma mali' strain PM19)
[4] = molecular target: HLP_(PM19-ΔTM) fused to the Gal4 binding domain ('Candidatus Phytoplasma mali' strain PM19)

B1: A. thaliana translocase of chloroplast 33 fused to the Gal4 activation domain (protein, UniProt O23680 1-297)
chain: MGSLVREWVGFQQFPAATQEKLIEFFGKLKQKDMNSMTVLVLGKGGVGKSSTVNSLIGEQVVRVSPFQAEGLRPVMVSRTMGGFTINIIDTPGLVEAGYVNHQALELIKGFLVNRTIDVLLYVDRLDVYRVDELDKQVVIAITQTFGKEIWCKTLLVLTHAQFSPPDELSYETFSSKRSDSLLKTIRAGSKMRKQEFEDSAIAVVYAENSGRCSKNDKDEKALPNGEAWIPNLVKAITDVATNQRKAIHVDKKMVDGSYSDDKGKKLIPLIIGAQYLIVKMIQGAIRNDIKTSGKPL
Question: How did the binding [1] turn out when B1 was run?
Answer: binds

Question: And the binding [2]?
Answer: no binding

Question: And the binding [3]?
Answer: binds

Question: And the binding [4]?
Answer: binds

Results are given in words; binding and its absence hold for the method and conditions named. For some of these results: Binding can be weak; no strength is given. Tags and fused reporters may be left off the sequences shown.
